According to US11072567B2, “Urea-based blend composition and method for the manufacture thereof” (YARA INTERNATIONAL ASA, priority 2015, dated 2021):
At least one read-out could not be matched to a standard name with certainty.

Assay: Stability of nBTPT on urea blended with DAP, bagged storage at 20° C., HPLC analysis of nBTPT content
Assay type: physicochemical
Settings: 900 ppm nBTPT as Agrotain Ultra on urea + DAP 1:1 ratio, after 14 days of storage in bags at 20° C.
Experimental: For lab scale experiments, nBTPT was applied onto urea by adding 1.2 kg of urea-based compound to a lab scale drum. In a next step, the nBTPT material was slowly added. A residence time of 10 minutes was applied and the rotating speed of the drum was consequently the same in each experiment. In case a moisture repellent coating was added, a nebulizer was used and depending on the order of addition, the moisture repellent coating was added before or after addition of the nBTPT material. Before use, the moisture repellent coating was preheated to 80° C. Larger scale experiments with amounts up to 40 kg of fertilizer material were performed in a concrete mixer.
In a next step, one or more reactive alkaline or alkaline-forming inorganic or organic compounds that is able to interact with the one or more components selected from the group of nitrates, phosphates, sulphates and chlorides was added;
In a next step, a particulate material, comprising one or more components selected from the group of nitrates, phosphates, sulphates and chlorides was added;
All the components were mixed thoroughly.
Optionally, a coating to one or more of the particulate components that is able to increase at least the anti-caking and/or water repellent properties of said urea-based blend composition was added. Importantly, all the steps can be interchanged or the steps can be performed simultaneously. […]

CCCCNP(N)(N)=S [nBTPT, N-(n-butyl) thiophosphoric triamide]
% recovery of nBTPT (No NH coating): 18.6% | % recovery of nBTPT (With NH coating (3000 ppm)): 25.4%
